{"source": "PubChem BioAssay AID686937 (Drosophila RNAi Screening Center, 2013)", "aim": "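Knock-downs that reduce output of a secreted reporter enzyme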 (primary screen)", "cell system": "Drosophila S2 cells expressing secreted horseradish peroxidase", "knock-down reagent": "long dsRNA against Drosophila genes", "duration": "about 5.5 days (5 days dsRNA, then 12 h reporter induction)", "conditions": "reporter expression induced after 5 days of dsRNA, read 12 h later; inducer not stated", "measurement": "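After 5 days of dsRNA and 12 h of reporter induction, medium peroxidase read by chemiluminescence and scored as per-plate z-score; higher values mean more reporter released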", "reading the numbers": "z-score: higher = more reporter secreted into medium", "note": "The screen tested about 23,000 reagents; this is an unselected part of those that have a named target and a result. 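Reduced-secretion tags in replicate 1 do not always agree with the z-scores; no criterion for assigning the tags was given.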 Reagents against one gene are numbered here. Names joined by + are all predicted targets of the reagent. Further read-outs or replicates are left out here. Not stated in the record: the amount of reagent."}
{"target":"CG15611 (GeneID 36930)","reagent":1,"z-score, replicate 1":0.5}
{"target":"CG15611 (GeneID 36930)","reagent":2,"z-score, replicate 1":0.38}
{"target":"RhoGEF4 (GeneID 38806)","reagent":1,"z-score, replicate 1":0.25}
{"target":"CG15160 (GeneID 35109)","reagent":1,"z-score, replicate 1":0.5}
{"target":"CG43110 (GeneID 12798330)","reagent":1,"z-score, replicate 1":0.26}
{"target":"gzl (GeneID 40791)","reagent":1,"z-score, replicate 1":0.44}
{"target":"cpx (GeneID 64877)","reagent":1,"z-score, replicate 1":0.41}
{"target":"unc-13 (GeneID 43841)","reagent":1,"z-score, replicate 1":0.21}
{"target":"unc-13 (GeneID 43841)","reagent":2,"z-score, replicate 1":-0.34}
{"target":"unc-13 (GeneID 43841)","reagent":3,"z-score, replicate 1":0.18}
{"target":"RpL4 (GeneID 43349)","reagent":1,"z-score, replicate 1":-4.47}
{"target":"MME1 (GeneID 33987)","reagent":1,"z-score, replicate 1":0.43}
{"target":"CG15239 (GeneID 31343)","reagent":1,"z-score, replicate 1":0.34}
{"target":"ATPsynbeta (GeneID 43829)","reagent":1,"z-score, replicate 1":-0.6}
{"target":"CG32706 + CG6999","reagent":1,"z-score, replicate 1":0.48}
{"target":"Ref2 (GeneID 34667)","reagent":1,"z-score, replicate 1":0.46}
{"target":"Vps37B (GeneID 40624)","reagent":1,"z-score, replicate 1":-0.15}
{"target":"Vlet (GeneID 32116)","reagent":1,"z-score, replicate 1":-0.02}
{"target":"klar (GeneID 38067)","reagent":1,"z-score, replicate 1":0.16}
{"target":"klar (GeneID 38067)","reagent":2,"z-score, replicate 1":0.38}
{"target":"CG3701 (retired record) (GeneID 37568)","reagent":1,"z-score, replicate 1":0.19}
{"target":"CG3701 (retired record) (GeneID 37568)","reagent":2,"z-score, replicate 1":0.46}
{"target":"RpL7A (GeneID 31588)","reagent":1,"z-score, replicate 1":-1.66}
{"target":"piwi (GeneID 34521)","reagent":1,"z-score, replicate 1":0.33}
{"target":"CG31199 (GeneID 42456)","reagent":1,"z-score, replicate 1":0.27}
{"target":"Rint1 (GeneID 38807)","reagent":1,"z-score, replicate 1":-4.69}
{"target":"mRpS30 (GeneID 32530)","reagent":1,"z-score, replicate 1":0.19}
{"target":"CG17002 (GeneID 35610)","reagent":1,"z-score, replicate 1":-0.43}
{"target":"rictor (GeneID 32919)","reagent":1,"z-score, replicate 1":0.48}
{"target":"gce (GeneID 32457)","reagent":1,"z-score, replicate 1":0.57}
{"target":"gce (GeneID 32457)","reagent":2,"z-score, replicate 1":-0.41}
{"target":"CG14982 (GeneID 38464)","reagent":1,"z-score, replicate 1":-3.15}
{"target":"pcx (GeneID 31204)","reagent":1,"z-score, replicate 1":0.1}
{"target":"pcx (GeneID 31204)","reagent":2,"z-score, replicate 1":-0.33}
{"target":"pcx (GeneID 31204)","reagent":3,"z-score, replicate 1":-0.57}
{"target":"pcx (GeneID 31204)","reagent":4,"z-score, replicate 1":-0.1}
{"target":"pcx (GeneID 31204)","reagent":5,"z-score, replicate 1":-0.15}
{"target":"pcx (GeneID 31204)","reagent":6,"z-score, replicate 1":0.18}
{"target":"asRNA:CR43469 + Balat","reagent":1,"z-score, replicate 1":0.24}
{"target":"CG5080 (GeneID 33299)","reagent":1,"z-score, replicate 1":0.06}
{"target":"CG12106 (GeneID 31856)","reagent":1,"z-score, replicate 1":0.45}
{"target":"IntS3 (GeneID 3355010)","reagent":1,"z-score, replicate 1":-0.27}
{"target":"CG18011 (GeneID 36068)","reagent":1,"z-score, replicate 1":0.42}
{"target":"CG18011 (GeneID 36068)","reagent":2,"z-score, replicate 1":0.48}
{"target":"CG12290 (GeneID 43182)","reagent":1,"z-score, replicate 1":0.25}
{"target":"nrv2 (GeneID 33953)","reagent":1,"z-score, replicate 1":-0.61}
{"target":"nrv2 (GeneID 33953)","reagent":2,"z-score, replicate 1":0.12}
{"target":"Dpck (GeneID 40846)","reagent":1,"z-score, replicate 1":0.31}
{"target":"Bmcp (GeneID 39322)","reagent":1,"z-score, replicate 1":0.36}
{"target":"CG13074 (GeneID 39760)","reagent":1,"z-score, replicate 1":0.38}
{"target":"CG31805 (GeneID 318952)","reagent":1,"z-score, replicate 1":-1.17}
